The values that follow come from the supplement of paper PMC10849652.

The chains behind the UniProt entries cited, without tags or fusion partners. Where a name states a change or a piece, a line headed by the entry shows the natural chain unless it says otherwise.
UniProt Q8IWF6: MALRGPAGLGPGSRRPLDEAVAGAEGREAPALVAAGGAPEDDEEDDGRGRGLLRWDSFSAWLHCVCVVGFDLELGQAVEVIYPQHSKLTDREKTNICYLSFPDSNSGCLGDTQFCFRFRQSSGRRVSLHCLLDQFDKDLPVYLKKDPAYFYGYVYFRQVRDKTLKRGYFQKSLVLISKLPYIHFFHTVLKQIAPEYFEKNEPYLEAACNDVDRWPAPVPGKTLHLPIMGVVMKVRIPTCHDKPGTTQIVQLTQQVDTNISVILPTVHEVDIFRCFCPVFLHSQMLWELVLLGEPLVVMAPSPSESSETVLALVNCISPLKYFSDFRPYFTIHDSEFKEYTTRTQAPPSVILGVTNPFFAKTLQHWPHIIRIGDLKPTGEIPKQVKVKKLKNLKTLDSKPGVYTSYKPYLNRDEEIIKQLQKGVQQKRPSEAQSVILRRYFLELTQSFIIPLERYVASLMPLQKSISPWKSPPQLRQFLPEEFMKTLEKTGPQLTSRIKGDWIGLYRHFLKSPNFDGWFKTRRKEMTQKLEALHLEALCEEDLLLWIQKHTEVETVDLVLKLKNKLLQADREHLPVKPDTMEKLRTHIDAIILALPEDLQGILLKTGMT
UniProt O43583: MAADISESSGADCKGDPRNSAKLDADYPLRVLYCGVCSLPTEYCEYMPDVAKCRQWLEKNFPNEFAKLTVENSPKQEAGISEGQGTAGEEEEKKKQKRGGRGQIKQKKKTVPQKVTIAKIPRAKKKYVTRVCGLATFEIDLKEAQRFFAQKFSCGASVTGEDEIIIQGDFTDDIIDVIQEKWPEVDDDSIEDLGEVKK
UniProt P35659: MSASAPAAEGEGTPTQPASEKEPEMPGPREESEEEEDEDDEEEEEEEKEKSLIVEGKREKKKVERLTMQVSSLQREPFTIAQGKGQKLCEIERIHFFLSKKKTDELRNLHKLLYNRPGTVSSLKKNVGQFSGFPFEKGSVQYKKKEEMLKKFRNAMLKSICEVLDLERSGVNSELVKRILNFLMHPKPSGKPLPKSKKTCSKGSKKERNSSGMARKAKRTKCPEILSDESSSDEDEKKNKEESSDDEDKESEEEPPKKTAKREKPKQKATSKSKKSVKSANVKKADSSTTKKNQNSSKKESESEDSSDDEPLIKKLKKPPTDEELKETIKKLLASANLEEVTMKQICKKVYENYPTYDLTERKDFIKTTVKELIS
UniProt O75064: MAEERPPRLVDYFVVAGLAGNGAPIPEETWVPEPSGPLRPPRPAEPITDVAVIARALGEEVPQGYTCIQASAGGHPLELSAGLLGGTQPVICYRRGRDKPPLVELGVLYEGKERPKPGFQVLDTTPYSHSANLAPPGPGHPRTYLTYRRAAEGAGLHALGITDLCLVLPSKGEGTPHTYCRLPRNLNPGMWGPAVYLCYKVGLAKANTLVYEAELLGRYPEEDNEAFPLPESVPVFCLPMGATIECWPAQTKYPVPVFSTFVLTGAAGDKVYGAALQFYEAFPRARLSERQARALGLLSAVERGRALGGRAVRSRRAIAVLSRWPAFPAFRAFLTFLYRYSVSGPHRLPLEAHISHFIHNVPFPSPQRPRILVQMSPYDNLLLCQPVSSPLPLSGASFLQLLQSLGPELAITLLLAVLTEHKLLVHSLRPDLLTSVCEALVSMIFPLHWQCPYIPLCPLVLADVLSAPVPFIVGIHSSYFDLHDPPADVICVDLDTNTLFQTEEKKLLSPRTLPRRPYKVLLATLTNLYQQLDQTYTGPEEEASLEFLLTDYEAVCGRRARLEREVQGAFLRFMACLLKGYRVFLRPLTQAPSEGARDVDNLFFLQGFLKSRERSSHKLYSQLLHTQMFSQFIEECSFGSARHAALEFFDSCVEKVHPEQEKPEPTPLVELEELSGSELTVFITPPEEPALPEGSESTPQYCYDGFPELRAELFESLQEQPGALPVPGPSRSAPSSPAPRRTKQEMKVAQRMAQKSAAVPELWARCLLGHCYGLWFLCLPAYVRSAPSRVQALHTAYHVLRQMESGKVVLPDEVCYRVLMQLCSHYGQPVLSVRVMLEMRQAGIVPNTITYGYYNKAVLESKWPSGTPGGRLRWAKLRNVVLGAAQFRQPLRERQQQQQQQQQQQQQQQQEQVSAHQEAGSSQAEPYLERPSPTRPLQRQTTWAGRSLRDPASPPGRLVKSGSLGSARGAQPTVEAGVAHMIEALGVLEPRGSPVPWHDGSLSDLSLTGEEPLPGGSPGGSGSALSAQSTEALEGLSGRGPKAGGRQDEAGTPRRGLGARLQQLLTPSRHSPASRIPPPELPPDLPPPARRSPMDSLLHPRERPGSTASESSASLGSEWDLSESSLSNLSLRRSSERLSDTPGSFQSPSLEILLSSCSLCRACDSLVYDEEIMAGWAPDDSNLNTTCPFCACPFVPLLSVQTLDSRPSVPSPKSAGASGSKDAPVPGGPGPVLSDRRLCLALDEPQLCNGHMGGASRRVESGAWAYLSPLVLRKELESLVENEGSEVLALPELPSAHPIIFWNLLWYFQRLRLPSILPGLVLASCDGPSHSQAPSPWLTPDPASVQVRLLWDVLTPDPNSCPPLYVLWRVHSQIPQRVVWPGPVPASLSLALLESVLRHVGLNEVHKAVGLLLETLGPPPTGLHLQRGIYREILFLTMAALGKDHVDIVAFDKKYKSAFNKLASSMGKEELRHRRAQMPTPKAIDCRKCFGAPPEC
UniProt P30046: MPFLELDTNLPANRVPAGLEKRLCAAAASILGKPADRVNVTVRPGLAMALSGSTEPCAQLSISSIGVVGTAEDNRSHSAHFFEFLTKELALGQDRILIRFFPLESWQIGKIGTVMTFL
UniProt Q5TDH0: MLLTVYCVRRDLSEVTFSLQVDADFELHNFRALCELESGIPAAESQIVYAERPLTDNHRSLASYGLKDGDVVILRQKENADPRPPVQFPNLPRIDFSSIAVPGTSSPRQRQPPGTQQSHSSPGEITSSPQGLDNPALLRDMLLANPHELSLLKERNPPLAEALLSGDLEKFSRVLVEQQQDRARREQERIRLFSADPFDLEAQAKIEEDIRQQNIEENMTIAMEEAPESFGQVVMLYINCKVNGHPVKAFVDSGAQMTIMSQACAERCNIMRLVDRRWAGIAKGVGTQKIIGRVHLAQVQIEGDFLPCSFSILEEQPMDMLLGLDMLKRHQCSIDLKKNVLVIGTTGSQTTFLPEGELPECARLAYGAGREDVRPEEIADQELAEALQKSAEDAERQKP
UniProt Q9Y6V7: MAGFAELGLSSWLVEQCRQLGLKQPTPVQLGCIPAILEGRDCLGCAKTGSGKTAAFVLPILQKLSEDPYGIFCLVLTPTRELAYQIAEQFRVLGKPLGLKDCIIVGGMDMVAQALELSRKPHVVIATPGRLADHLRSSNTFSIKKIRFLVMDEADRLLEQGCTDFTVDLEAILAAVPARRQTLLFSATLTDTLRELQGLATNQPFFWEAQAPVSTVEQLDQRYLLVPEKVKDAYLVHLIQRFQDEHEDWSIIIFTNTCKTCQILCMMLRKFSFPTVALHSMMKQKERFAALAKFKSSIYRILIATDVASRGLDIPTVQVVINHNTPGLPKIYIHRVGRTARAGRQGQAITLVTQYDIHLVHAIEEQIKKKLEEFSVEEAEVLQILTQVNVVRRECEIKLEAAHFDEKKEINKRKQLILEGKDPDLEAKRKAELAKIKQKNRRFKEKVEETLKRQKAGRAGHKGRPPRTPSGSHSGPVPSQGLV
UniProt Q86SQ9: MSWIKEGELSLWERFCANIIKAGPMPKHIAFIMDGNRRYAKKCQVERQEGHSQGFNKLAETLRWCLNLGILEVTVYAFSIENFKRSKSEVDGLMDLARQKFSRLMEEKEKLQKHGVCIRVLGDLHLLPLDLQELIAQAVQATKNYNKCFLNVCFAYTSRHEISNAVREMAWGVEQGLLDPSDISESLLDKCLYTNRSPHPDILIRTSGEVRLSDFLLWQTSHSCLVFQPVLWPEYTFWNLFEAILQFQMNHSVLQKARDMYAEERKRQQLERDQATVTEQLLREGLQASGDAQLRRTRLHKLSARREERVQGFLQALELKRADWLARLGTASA
UniProt Q13574: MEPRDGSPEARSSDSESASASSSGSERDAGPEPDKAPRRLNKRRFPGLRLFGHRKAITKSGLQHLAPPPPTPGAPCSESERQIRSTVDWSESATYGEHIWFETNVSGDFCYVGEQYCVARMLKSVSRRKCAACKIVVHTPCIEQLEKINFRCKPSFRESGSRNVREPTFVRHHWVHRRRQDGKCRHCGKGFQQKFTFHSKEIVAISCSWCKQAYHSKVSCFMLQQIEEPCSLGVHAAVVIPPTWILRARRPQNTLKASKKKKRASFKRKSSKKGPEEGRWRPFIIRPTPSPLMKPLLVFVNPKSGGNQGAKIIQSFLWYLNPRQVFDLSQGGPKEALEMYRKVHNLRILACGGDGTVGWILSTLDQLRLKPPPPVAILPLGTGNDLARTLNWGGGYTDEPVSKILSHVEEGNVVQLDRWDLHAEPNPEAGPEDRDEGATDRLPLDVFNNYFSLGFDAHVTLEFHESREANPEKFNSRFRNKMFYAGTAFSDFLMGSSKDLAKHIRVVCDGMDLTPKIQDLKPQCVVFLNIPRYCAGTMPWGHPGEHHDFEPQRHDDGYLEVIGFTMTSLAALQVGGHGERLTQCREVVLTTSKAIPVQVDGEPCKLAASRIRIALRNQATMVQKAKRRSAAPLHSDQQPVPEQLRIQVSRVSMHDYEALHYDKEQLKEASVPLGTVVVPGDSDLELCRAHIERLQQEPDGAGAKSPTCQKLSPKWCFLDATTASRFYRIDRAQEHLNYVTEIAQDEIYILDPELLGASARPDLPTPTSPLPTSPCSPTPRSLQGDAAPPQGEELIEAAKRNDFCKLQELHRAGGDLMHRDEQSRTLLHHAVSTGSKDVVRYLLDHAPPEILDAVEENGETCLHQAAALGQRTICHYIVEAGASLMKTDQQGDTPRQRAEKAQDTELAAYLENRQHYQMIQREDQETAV
UniProt O60884: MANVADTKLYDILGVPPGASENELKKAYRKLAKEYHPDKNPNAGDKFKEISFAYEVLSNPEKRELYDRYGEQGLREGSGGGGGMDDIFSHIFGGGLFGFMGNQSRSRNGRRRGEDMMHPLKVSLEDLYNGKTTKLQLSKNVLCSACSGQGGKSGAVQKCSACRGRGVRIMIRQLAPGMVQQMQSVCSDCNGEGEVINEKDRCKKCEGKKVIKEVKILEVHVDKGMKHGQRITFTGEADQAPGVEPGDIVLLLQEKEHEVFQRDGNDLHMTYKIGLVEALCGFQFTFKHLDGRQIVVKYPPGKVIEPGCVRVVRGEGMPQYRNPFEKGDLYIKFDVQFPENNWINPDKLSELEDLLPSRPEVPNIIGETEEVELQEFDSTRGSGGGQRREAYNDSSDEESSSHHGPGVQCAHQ
UniProt Q14562: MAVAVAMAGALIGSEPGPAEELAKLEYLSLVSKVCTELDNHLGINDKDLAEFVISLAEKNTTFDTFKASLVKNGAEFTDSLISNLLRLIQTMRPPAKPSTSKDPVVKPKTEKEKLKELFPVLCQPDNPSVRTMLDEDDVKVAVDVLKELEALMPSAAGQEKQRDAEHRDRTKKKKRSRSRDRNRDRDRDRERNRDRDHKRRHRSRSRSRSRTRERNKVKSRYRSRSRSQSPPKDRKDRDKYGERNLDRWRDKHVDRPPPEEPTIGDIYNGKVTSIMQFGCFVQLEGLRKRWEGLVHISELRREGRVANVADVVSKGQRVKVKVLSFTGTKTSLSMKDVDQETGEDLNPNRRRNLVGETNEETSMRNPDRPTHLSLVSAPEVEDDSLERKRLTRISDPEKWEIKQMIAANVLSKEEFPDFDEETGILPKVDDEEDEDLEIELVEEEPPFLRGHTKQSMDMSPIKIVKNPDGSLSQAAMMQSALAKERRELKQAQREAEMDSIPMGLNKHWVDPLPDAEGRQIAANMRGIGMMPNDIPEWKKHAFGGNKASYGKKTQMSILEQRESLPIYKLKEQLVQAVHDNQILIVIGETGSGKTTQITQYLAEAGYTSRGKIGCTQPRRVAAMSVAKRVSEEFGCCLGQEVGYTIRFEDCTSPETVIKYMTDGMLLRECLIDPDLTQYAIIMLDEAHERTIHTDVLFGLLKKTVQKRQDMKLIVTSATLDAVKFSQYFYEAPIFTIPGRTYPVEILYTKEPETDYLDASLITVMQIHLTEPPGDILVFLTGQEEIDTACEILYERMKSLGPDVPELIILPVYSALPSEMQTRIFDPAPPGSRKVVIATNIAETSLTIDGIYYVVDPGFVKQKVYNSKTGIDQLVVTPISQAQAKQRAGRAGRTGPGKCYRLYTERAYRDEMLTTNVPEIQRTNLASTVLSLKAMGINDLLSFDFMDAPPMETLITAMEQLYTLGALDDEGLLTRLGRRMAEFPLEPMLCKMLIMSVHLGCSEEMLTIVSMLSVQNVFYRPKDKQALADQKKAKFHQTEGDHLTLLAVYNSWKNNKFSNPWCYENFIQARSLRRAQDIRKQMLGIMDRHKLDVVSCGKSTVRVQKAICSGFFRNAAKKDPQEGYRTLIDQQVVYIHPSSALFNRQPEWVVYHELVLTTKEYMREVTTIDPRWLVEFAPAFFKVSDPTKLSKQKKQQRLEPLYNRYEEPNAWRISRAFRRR

This is one part of the list.

Compound in the test: CN1CCN(CCOc2cc(OC3CCOCC3)c3c(Nc4c(Cl)ccc5c4OCO5)ncnc3c2)CC1 [saracatinib]
Description: log2 fold change, soluble protein after heating vs DMSO (PISA); higher = thermal stabilisation; K562 cells, 10 uM, 30 min; active = over 0.2 and 3.5 SD of the protein, either way, in both replicates (recomputed). The method, boiled down:
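Thermal stability values are relative to control samples and come from duplicates. They are expressed as log2 fold changes. For measurement, K562 cells (2×10^6 cells/mL) received 10 μM compound for 30 min, and aliquots were heated for 3 min over 48°C-58°C, pooled, and extracted at 4°C in PBS with 0.5% NP-40. Soluble protein, the supernatant after 21,000xg for 90 min, was quantified by TMTpro 16plex LC-MS/MS with equalised channel sums.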
In the case of DGCR8 (UniProt Q8WYQ5), the log2 fold change is inactive: -0.115.
Turning to DENND6A (UniProt Q8IWF6), the log2 fold change is inactive: 0.038.
Take DHX57 (UniProt Q6P158): the log2 fold change was inactive: -0.058.
The result for DHRS11 (UniProt Q6UWP2) reads inactive: -0.037.
The result for DENR (UniProt O43583) reads inactive: 0.053; that for DHX15 (UniProt O43143), inactive: 0.017.
The result for DEK (UniProt P35659) reads inactive: -0.02; that for DENND4C isoform 7 (UniProt Q5VZ89), inactive: 0.043; that for DDX21 (UniProt Q9NR30), inactive: -0.097.
As for DLG3 (UniProt Q92796), the log2 fold change was inactive: 0.05.
The result for DENND4B (UniProt O75064) reads inactive: 0.079.
The result for DDHD2 (UniProt O94830) reads inactive: 0.007; that for DIDO1 (UniProt Q9BTC0), inactive: -0.188.
With DIP2B (UniProt Q9P265) the figure was inactive: 0.02.
As to DIS3L (UniProt Q8TF46), the log2 fold change is inactive: -0.075.
With DDT (UniProt P30046) the figure was inactive: 0.017; with DDI2 isoform 3 (UniProt Q5TDH0), inactive: 0.044; with DDX42 (UniProt Q86XP3), inactive: -0.113.
As to DICER1 (UniProt Q9UPY3), the log2 fold change is inactive: -0.126.
With DDX41 (UniProt Q9UJV9) the figure was inactive: -0.14.
The result for DDX20 (UniProt Q9UHI6) reads inactive: -0.153.
The result for DNAH9 (UniProt Q9NYC9) reads inactive: 0.085; that for DDX19B (UniProt Q9UMR2), inactive: 0.02.
With DDX49 (UniProt Q9Y6V7), the log2 fold change was inactive: -0.035.
The result for DDAH2 (UniProt O95865) reads inactive: 0.084; that for DHDDS isoform 2 (UniProt Q86SQ9), inactive: 0.023.
The result for DGKZ (UniProt Q13574) reads inactive: 0.027; that for DMTN (UniProt Q08495), inactive: 0.053; that for DMD (UniProt P11532), inactive: 0.066.
The result for DGUOK (UniProt Q16854) reads inactive: 0.027; that for DDB2 (UniProt Q92466), inactive: 0.078; that for DNAJA2 (UniProt O60884), inactive: 0.016.
Consider DIMT1 (UniProt Q9UNQ2), for which the log2 fold change was inactive: -0.08.
With DIPK2A (UniProt Q8NDZ4) the figure was inactive: 0.111; with DHX8 (UniProt Q14562), inactive: -0.013.
With DFFA (UniProt O00273) the figure was inactive: 0.057.
With DDX23 (UniProt Q9BUQ8) the figure was inactive: -0.048; with DMXL2 isoform 3 (UniProt Q8TDJ6), inactive: -0.22.
In the case of DERL1 (UniProt Q9BUN8), the log2 fold change was inactive: 0.073.
